From PubChem BioAssay AID504467 (National Center for Advancing Translational Sciences (NCATS), 2011)
Several values for one entry are separate records, joined by “and”; a condition that tells them apart may be missing. Identical values can stand only once. About 7,700 (2.3%) of roughly 330,000 compounds were called active. The inconclusive results got no clear call from the source; some entries with a clear call stand among them for comparison. The call rests on the fitted dose curve; in most records, active means well fitted inhibition curve with a large enough effect; inconclusive means small, poorly fitted or top-dose-only effect, or effect the other way; inactive means flat fitted curve, though single readings scatter. Potencies beside an inconclusive call are fits to weak or partial responses and may not hold up.

Assay: qHTS screen for small molecules that inhibit ELG1-dependent DNA repair in human embryonic kidney (HEK293T) cells expressing luciferase-tagged ELG1; further: nearly all actives have a fitted effect of over 55% in size
Conditions: HEK293T ELG1-luciferase reporter, luminescence, 16 h, DNA damage induced by 5-fluorouridine; series mostly up to 46.1 µM
Summary of the method: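 DMSO vehicle served as the neutral condition. Each well held 2,000 cells given 5-fluorouridine plus compound; after 16 hr at 37 °C/5% CO2, ONE-Glo was added and luciferase measured 30 min later.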
Potency means the concentration at half of the fitted maximal effect.

Q: For O=C(c1ccc(C(F)(F)F)cc1)N1CCC(=O)N(C(COCc2ccccc2)Cc2ccccc2)CC1 (configuration not stated), which Potency is on record?
A: inconclusive: 29.1 µM [inhibitor, single point]

Q: With CCOC(=O)c1sc(=NC(=O)COc2ccccc2)n(C)c1C as the compound, how does the Potency read?
A: inconclusive: 14.6 µM [activator, partial curve]

Q: Which Potency does the source give for CCC(=O)Nc1ccc2c(c1)ncn2-c1ccccc1 here?
A: inconclusive: 20.6 µM [activator, partial curve]

Q: Which Potency does the source give for COc1ccc(C(=O)NCC(=O)OCC(=O)NC2CCCCCC2)cc1 here?
A: inactive

Q: Which Potency does the source give for O=C(CSc1nnnn1-c1ccccc1)Nc1nsc(-c2ccc(Cl)cc2)n1 here?
A: inconclusive: 23.1 µM [activator, single point]

Q: With Oc1c(Br)cc(Br)cc1CNc1nccs1 as the compound, how does the Potency read?
A: inactive

Q: Which Potency does the source give for O=c1oc(CCCO)cc2ccc(C#CC3(O)CCCCC3)cc12 here?
A: inconclusive: 11.6 µM [activator, partial curve]

Q: With Cc1nnc2sc(SCc3ccc(Cl)cc3)nn2c1=O as the compound, how does the Potency read?
A: inconclusive: 20.6 µM [activator, single point]

Q: Which Potency does the source give for CCC(C)NCC(=O)Nc1ccc([N+](=O)[O-])cc1C(=O)Nc1ccccc1F (configuration not stated) here?
A: inconclusive: 32.6 µM [inhibitor, single point]

Q: With S=c1[nH]nc(C23CC4CC(CC(C4)C2)C3)n1Cc1ccco1 as the compound, how does the Potency read?
A: inactive

Q: With O=C(O)CSc1c2c(nc3cc(C(=O)N4CCCC4)ccc13)CCCC2 as the compound, how does the Potency read?
A: inactive

Q: For O=C(c1cccc([N+](=O)[O-])c1)N1CCN(c2cccc(Cl)c2)CC1, which Potency is on record?
A: inconclusive: 6.51 µM [inhibitor, partial curve, poor fit]

Q: With COc1ccc(NC(=O)Cn2nnc(C(=O)Nc3ccc(F)c(Cl)c3)c2N)cc1 as the compound, how does the Potency read?
A: inconclusive: 29.1 µM [activator, single point]

Q: Which Potency does the source give for COC(=O)[C@@H]1C[C@H]2CC[C@H](O)C[C@H]2N1Cc1ccc(-c2ccccc2)cc1 here?
A: inactive

Q: Which Potency does the source give for CC(=O)Nc1cc2cc(NS(=O)(=O)c3ccc(Cl)cc3)ccc2oc1=O here?
A: inconclusive: 29.1 µM [activator, single point]

Q: With O=C(N/N=C/c1ccccc1C(=O)O)c1cc(-c2ccc3c4c(cccc24)CC3)n[nH]1 as the compound, how does the Potency read?
A: inconclusive: 7.3 µM [inhibitor, partial curve, poor fit]

Q: For O=C(Nc1cccc(S(=O)(=O)N2CCCCC2)c1)c1c2c(nc3ccccc13)CCN(Cc1ccccc1)C2, which Potency is on record?
A: inconclusive: 20.6 µM [inhibitor, single point]

Q: Which Potency does the source give for N#CC1=C(N)Oc2c(ccc3cccnc23)C1c1cccnc1 (configuration not stated) here?
A: inconclusive: 5.8 µM [inhibitor, partial curve]

Q: With Cc1ccc(-n2ncc3c(=O)n(-c4ccc(C)c(C)c4)c(-c4ccco4)nc32)cc1 as the compound, how does the Potency read?
A: inconclusive: 29.1 µM [inhibitor, single point]

Q: With COc1ccc(/C=C(/NC(=O)c2ccccc2)C(=O)NCc2ccncc2)cc1 as the compound, how does the Potency read?
A: inconclusive: 29.1 µM [activator, single point]

Q: For Cc1ccc(NNC(=O)C(=O)N2CCCCC2)cc1, which Potency is on record?
A: inactive

Q: For Cc1cc(C)c(C#N)c(N)n1, which Potency is on record?
A: inconclusive: 29.1 µM [activator, partial curve, poor fit]

Q: Which Potency does the source give for COc1ccc(C(C(=O)NC2CCCCC2)N(Cc2cccs2)C(=O)Cc2c[nH]c3ccccc23)cc1 (configuration not stated) here?
A: inconclusive: 29.1 µM [inhibitor, single point]

Q: Which Potency does the source give for Cc1ccc(C2=Nc3ccc(Br)cc3C(c3ccncc3)=NN2)cc1 here?
A: inconclusive: 23.1 µM [inhibitor, single point]

Q: For Cc1c(C(=O)Nc2cccc(-c3nnc4n3CCCCC4)c2)oc2ccccc12, which Potency is on record?
A: inconclusive: 23.1 µM [inhibitor, single point]

Q: Which Potency does the source give for COC(=O)C1=CN(Cc2ccc(OC)cc2)C=C(C(=O)OC)C1c1cccs1 here?
A: inconclusive: 29.1 µM [inhibitor, single point]

Q: Which Potency does the source give for O=C(O)c1cc2cc(Cl)cc(Cl)c2oc1=O here?
A: inconclusive: 3.16 µM [activator, single point]

Q: With CN(c1ccccc1)c1nc2ccsc2c(=O)s1 as the compound, how does the Potency read?
A: inconclusive: 12.6 µM [activator, partial curve, poor fit]

Q: With COCCC(=O)N1CCc2ccc(NC(=O)c3ccc(C(F)(F)F)cc3)cc2C1 as the compound, how does the Potency read?
A: active: 13 µM

Q: For CCOC(=O)[C@H]1[C@H]2COc3cc(OC)ccc3[C@@H]2N2C(=O)c3c(C)cc(C)cc3NC(=O)[C@@]12C, which Potency is on record?
A: inactive

Q: For CN(Cc1ccc(O)cc1)C1CCCCC1, which Potency is on record?
A: inactive

Q: Which Potency does the source give for FC(F)(F)c1ccc(Cl)c(NC2=NCCCCC2)c1 here?
A: inconclusive: 29.1 µM [inhibitor, single point]

Q: With Cc1ccc(SCC(=O)Nc2ccc3c(c2)OCCO3)cc1 as the compound, how does the Potency read?
A: inconclusive: 14.6 µM [activator, partial curve]

Q: Which Potency does the source give for CCc1nc(SCC(=O)c2ccccc2)c2ccccc2n1 here?
A: inconclusive: 29.1 µM [inhibitor, single point]

Q: For COc1ccccc1OCC(=O)Nc1c2c(nn1-c1ccc(C)cc1)CS(=O)(=O)C2, which Potency is on record?
A: inconclusive: 23.1 µM [inhibitor, single point]

Q: For O=C(CSc1ccc(F)cc1)Nc1ccc(N2CCOCC2)c(Cl)c1, which Potency is on record?
A: inactive

Q: With CCC1CCCCN1C(=O)COC(=O)c1ccc(Br)o1 (configuration not stated) as the compound, how does the Potency read?
A: inactive

Q: Which Potency does the source give for O=C(O)CCCN(Cc1cccc(Br)c1)S(=O)(=O)c1ccc(Br)cc1 here?
A: inconclusive: 1.46 µM [inhibitor, full curve]

Q: Which Potency does the source give for CC1(C)OC(=O)C=C(CC2NS(=O)(=O)OC3CCCCC23)O1 (configuration not stated) here?
A: inconclusive: 0.0651 µM [activator, single point]

Q: With Cc1ccc(N=C2NC(=O)/C(=C/c3cn(C)c4ccccc34)S2)cc1C as the compound, how does the Potency read?
A: inconclusive: 29.1 µM [inhibitor, single point]

Q: For Cc1cccc(OCc2nnc(SCC(=O)NCC3CCCO3)n2C)c1 (configuration not stated), which Potency is on record?
A: inactive

Q: With Oc1ccc(COCc2ccccc2)c2cccnc12 as the compound, how does the Potency read?
A: inconclusive: 25.9 µM [activator, partial curve, poor fit] and inconclusive: 5.8 µM [activator, full curve, poor fit]

Q: Which Potency does the source give for COC(=O)c1ccc2nc(C(F)(F)F)[nH]c2c1 here?
A: inconclusive: 29.1 µM [inhibitor, single point]

Q: With O=C(c1ccc(CSc2ccccc2)cc1)N1CCN(c2ccccc2)CC1 as the compound, how does the Potency read?
A: inactive

Q: With CCCCn1c(N)c(N(CC(C)C)C(=O)c2ccc(-c3ccc(C(C)=O)cc3)o2)c(=O)[nH]c1=O as the compound, how does the Potency read?
A: inconclusive: 23.1 µM [activator, single point]

Q: With Cc1cccc(NC(=O)N2CCCCCC2)c1 as the compound, how does the Potency read?
A: inconclusive: 16.4 µM [activator, partial curve]

Q: With COc1cc(NC(=O)Cc2ccc(S(=O)(=O)N3CCOCC3)s2)c(OC)cc1Cl as the compound, how does the Potency read?
A: inconclusive: 5.8 µM [inhibitor, single point]

Q: Which Potency does the source give for Cc1ccc(NC(=O)c2ccc(Cl)c(S(=O)(=O)N3CCCCCC3)c2)nc1 here?
A: inconclusive: 8.2 µM [inhibitor, single point]

Q: Which Potency does the source give for CCOc1ccc(C(c2c(NC(=O)c3ccco3)sc(C)c2C)N2CCOCC2)cc1 (configuration not stated) here?
A: inactive

Q: For NC(=O)c1cccnc1Nc1cccc([N+](=O)[O-])c1, which Potency is on record?
A: inconclusive: 13 µM [activator, partial curve]

Q: For CCOc1ccc(NS(=O)(=O)c2ccc(C(=O)N(C)CC(=O)Nc3ccc(OC)cc3)cc2)cc1, which Potency is on record?
A: inactive

Q: Which Potency does the source give for Cc1ccc(NC(=O)Nc2ccc3c(c2)OCO3)nc1 here?
A: inconclusive: 13 µM [activator, partial curve]

Q: With COc1ccc(NC(=O)CCN2C(=O)c3ccccc3C2=O)cc1 as the compound, how does the Potency read?
A: inactive

Q: Which Potency does the source give for COc1cccc(C(=O)Nc2cccc3cccnc23)c1OC here?
A: inconclusive: 29.1 µM [activator, single point]

Q: For CCn1c(NC(=O)c2cccc(Cn3cc(Cl)cn3)c2)nc2ccccc21, which Potency is on record?
A: inconclusive: 29.1 µM [inhibitor, single point]

Q: For Cc1ccc(OCCOc2ccc(Cl)cc2Cl)c([N+](=O)[O-])n1, which Potency is on record?
A: inconclusive: 20.6 µM [activator, partial curve]

Q: For Cc1ccc(OCC(=O)N2CCCCC2)c(Br)c1, which Potency is on record?
A: inconclusive: 20.6 µM [activator, partial curve]

Q: For O=S(=O)(NC1CC1)c1ccc(S(=O)(=O)N2CCCC(c3nc(-c4cccnc4)no3)C2)cc1 (configuration not stated), which Potency is on record?
A: inconclusive: 4.61 µM [inhibitor, single point]

Q: For CC1(C)CC(=O)c2cnc(N3CCc4ccccc4C3)nc2C1, which Potency is on record?
A: inconclusive: 2.59 µM [activator, partial curve]

Q: Which Potency does the source give for Cc1cc(CNC(=O)COc2ccc(F)cc2)c2ccccc2n1 here?
A: inconclusive: 23.1 µM [inhibitor, partial curve, poor fit]

Q: For CCCN(CCC)S(=O)(=O)c1ccc(N2CCCC2=O)c([N+](=O)[O-])c1, which Potency is on record?
A: inconclusive: 29.1 µM [activator, partial curve, poor fit]

Q: Which Potency does the source give for CCOc1cc(C(=S)N2CCOCC2)cc(Br)c1OS(=O)(=O)c1ccccc1 here?
A: inactive

Q: With O=C(Nc1ccc(Cl)cc1)c1cccc(N2C(=O)C3C4CCC(C4)C3C2=O)c1 (configuration not stated) as the compound, how does the Potency read?
A: inconclusive: 20.6 µM [inhibitor, single point]

Q: For CCc1ccccc1N(CC)C(=O)c1cn(C)c(=O)c2cc(OC)c(OC)cc12, which Potency is on record?
A: inconclusive: 16.4 µM [inhibitor, single point]

Q: For O=C1c2ccccc2C(=O)C12OC2c1ccc(Cl)cc1Cl (configuration not stated), which Potency is on record?
A: inactive

Q: Which Potency does the source give for Cc1ccc(/C=C/c2ccc(=O)n(Cc3ccccc3Cl)n2)cc1 here?
A: inconclusive: 18.4 µM [inhibitor, single point]

Q: For Cc1[nH]c(=O)[nH]c(=O)c1S(=O)(=O)Nc1ccc(F)c([N+](=O)[O-])c1, which Potency is on record?
A: inactive
